Test [1] has as its target T1, GFP-NAP1L4-C383S (human) (UniProt Q99733).
T1 sequence: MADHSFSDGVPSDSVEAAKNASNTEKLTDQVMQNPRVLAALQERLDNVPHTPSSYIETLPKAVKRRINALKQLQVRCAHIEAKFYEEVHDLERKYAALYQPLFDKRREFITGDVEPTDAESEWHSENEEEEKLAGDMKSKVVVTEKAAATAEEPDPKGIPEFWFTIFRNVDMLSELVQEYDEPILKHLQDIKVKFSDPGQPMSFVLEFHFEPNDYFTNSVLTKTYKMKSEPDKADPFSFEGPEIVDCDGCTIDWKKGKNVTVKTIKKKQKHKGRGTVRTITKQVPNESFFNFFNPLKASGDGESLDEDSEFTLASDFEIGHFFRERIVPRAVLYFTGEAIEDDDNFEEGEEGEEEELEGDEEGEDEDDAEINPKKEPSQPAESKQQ
Description: affinity purification with mass spectrometry.

Amino acid sequences for entries named in this document (tags omitted).
UniProt P49674: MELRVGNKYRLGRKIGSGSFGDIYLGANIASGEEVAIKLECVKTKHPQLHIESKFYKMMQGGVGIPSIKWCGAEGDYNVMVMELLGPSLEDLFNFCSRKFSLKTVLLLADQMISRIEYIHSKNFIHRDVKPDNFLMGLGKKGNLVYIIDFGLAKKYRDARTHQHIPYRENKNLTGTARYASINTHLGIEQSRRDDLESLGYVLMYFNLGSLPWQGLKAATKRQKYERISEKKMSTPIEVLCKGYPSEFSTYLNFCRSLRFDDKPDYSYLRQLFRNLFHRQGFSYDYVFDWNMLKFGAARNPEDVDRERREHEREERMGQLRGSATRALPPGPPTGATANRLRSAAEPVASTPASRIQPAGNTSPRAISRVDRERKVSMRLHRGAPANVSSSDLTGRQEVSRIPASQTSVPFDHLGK

For test [2], the target named is T2, GFP-NAP1L4 (human) (UniProt Q99733).
T2 sequence: T1 sequence with S383C
Description: affinity purification with mass spectrometry.

Positions count from the first letter of the chain named. These are yes or no findings as the source states them, for the method shown. Binding seen in cells or lysates may run through a third protein. A yes stands for co-enrichment or nearness to the bait. Other partners may have been found. Where a sequence is shown, tags or fusion partners need not be part of it.

As for “CSNK1E (from UniProt P49674 1-416) (enzyme)”, the binding result in test [1] and in test [2] was “binds” in each case.

B1: PAXBP1 (protein, UniProt Q9Y5B6 1-917)
chain: MFRKARRVNVRKRNDSEEEERERDEEQEPPPLLPPPGTGEEAGPGGGDRAPGGESLLGPGPSPPSALTPGLGAEAGGGFPGGAEPGNGLKPRKRPRENKEVPRASLLSFQDEEEENEEVFKVKKSSYSKKIVKLLKKEYKEDLEKSKIKTELNSSAESEQPLDKTGHVKDTNQEDGVIISEHGEDEMDMESEKEEEKPKTGGAFSNALSSLNVLRPGEIPDAAFIHAARKKRQMARELGDFTPHDNEPGKGRLVREDENDASDDEDDDEKRRIVFSVKEKSQRQKIAEEIGIEGSDDDALVTGEQDEELSRWEQEQIRKGINIPQVQASQPAEVNMYYQNTYQTMPYGSSYGIPYSYTAYGSSDAKSQKTDNTVPFKTPSNEMTPVTIDLVKKQLKDRLDSMKELHKTNRQQHEKHLQSRVDSTRAIERLEGSSGGIGERYKFLQEMRGYVQDLLECFSEKVPLINELESAIHQLYKQRASRLVQRRQDDIKDESSEFSSHSNKALMAPNLDSFGRDRALYQEHAKRRIAEREARRTRRRQAREQTGKMADHLEGLSSDDEETSTDITNFNLEKDRISKESGKVFEDVLESFYSIDCIKSQFEAWRSKYYTSYKDAYIGLCLPKLFNPLIRLQLLTWTPLEAKCRDFENMLWFESLLFYGCEEREQEKDDVDVALLPTIVEKVILPKLTVIAENMWDPFSTTQTSRMVGITLKLINGYPSVVNAENKNTQVYLKALLLRMRRTLDDDVFMPLYPKNVLENKNSGPYLFFQRQFWSSVKLLGNFLQWYGIFSNKTLQELSIDGLLNRYILMAFQNSEYGDDSIKKAQNVINCFPKQWFMNLKGERTISQLENFCRYLVHLADTIYRNSIGCSDVEKRNARENIKQIVKLLASVRALDHAMSVASDHNVKEFKSLIEGK
On to B1, for which the binding result in test [1] and in test [2] was “binds” each time.

B2: NPM3 (protein, UniProt O75607 1-178)
chain: MAAGTAAALAFLSQESRTRAGGVGGLRVPAPVTMDSFFFGCELSGHTRSFTFKVEEEDDAEHVLALTMLCLTEGAKDECNVVEVVARNHDHQEIAVPVANLKLSCQPMLSLDDFQLQPPVTFRLKSGSGPVRITGRHQIVTMSNDVSEEESEEEEEDSDEEEVELCPILPAKKQGGRP
In the case of B2, the binding result in test [1] and in test [2] was “binds” throughout.

Values taken from paper doi:10.1101/2024.07.01.601625.
